Measurements published in the supplement of paper PMC12823440, “Inhibitors supercharge kinase turnover through native proteolytic circuits” (Nature, 2025).
Some of the results follow. Hit calls seldom repeat between salt and free forms of one compound.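 Kinases, fused to nanoluciferase, were expressed in K562 cells; luminescence was measured every 4 h from 2 to 18 h as percent of control (DMSO = 100%, positive control = 0%). A time point is decreased if signal falls significantly (2 sigma). Hits were called by the authors by a rule that is not shown; the count of time points alone does not decide it.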

The chains behind the UniProt entries cited, without tags or fusion partners. Where a name states a change or a piece, a line headed by the entry shows the natural chain unless it says otherwise.
UniProt Q06187: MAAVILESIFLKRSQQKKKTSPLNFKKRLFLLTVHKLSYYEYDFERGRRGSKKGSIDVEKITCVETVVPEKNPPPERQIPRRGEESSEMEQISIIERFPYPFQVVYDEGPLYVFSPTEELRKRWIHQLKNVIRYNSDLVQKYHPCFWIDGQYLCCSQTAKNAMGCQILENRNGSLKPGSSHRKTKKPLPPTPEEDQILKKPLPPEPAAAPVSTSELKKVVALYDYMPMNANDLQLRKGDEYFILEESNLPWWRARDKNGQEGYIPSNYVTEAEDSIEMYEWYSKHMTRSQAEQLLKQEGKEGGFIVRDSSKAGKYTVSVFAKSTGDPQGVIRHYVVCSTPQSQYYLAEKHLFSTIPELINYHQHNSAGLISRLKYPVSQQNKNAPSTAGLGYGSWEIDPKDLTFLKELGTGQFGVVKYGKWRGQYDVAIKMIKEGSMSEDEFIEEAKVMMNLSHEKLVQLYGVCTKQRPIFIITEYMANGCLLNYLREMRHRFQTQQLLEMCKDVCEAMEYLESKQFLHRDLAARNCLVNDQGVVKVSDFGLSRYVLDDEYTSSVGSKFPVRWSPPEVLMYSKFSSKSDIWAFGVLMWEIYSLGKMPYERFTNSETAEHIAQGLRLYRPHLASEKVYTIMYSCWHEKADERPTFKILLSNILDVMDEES
UniProt Q9UQM7, whole entry: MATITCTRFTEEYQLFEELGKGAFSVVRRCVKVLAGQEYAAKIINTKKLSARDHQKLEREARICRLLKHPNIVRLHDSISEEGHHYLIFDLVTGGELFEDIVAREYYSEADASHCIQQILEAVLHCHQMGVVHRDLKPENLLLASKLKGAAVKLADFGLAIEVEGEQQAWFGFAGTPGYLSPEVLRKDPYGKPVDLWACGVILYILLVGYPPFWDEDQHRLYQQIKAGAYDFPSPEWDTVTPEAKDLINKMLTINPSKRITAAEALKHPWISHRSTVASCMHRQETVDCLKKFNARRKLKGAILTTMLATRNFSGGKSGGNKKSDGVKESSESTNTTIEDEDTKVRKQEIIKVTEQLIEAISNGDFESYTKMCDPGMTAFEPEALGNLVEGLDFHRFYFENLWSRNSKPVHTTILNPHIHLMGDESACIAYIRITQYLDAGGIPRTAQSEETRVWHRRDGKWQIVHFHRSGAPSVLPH
UniProt Q15131: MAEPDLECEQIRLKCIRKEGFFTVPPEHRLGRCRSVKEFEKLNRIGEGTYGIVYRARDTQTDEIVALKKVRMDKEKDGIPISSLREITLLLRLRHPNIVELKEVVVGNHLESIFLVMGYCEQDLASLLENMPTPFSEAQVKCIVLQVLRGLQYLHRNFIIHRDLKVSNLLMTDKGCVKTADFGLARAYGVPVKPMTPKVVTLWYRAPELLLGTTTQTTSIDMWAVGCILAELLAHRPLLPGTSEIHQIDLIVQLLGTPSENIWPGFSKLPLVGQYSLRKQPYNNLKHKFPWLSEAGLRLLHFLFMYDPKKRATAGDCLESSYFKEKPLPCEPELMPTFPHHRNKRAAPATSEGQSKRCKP
UniProt Q00526: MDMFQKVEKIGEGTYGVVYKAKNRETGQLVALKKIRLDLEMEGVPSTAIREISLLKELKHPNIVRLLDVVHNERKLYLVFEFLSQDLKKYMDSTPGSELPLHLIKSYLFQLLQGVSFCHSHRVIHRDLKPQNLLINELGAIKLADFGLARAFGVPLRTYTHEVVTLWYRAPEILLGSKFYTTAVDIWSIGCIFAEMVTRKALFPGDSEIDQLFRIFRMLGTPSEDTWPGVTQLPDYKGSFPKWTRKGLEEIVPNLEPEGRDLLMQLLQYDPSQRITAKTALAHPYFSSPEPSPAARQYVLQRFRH
UniProt Q00535, whole entry, looked up: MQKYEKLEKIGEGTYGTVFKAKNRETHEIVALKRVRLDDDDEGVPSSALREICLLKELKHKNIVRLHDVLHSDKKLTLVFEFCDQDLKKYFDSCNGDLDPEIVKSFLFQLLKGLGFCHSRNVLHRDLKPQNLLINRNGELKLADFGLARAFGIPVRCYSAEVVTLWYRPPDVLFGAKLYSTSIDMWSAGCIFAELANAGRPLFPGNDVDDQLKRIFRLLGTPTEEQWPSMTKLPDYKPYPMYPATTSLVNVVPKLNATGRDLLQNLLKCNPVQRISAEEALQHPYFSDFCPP
UniProt Q00534, whole entry: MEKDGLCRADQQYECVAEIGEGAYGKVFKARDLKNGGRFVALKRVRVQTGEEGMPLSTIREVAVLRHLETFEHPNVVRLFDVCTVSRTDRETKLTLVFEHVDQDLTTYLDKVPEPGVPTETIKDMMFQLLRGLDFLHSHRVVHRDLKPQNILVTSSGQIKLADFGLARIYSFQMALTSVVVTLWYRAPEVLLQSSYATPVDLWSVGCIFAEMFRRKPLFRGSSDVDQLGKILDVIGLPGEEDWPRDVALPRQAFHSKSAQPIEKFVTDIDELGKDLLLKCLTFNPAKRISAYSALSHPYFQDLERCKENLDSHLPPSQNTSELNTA
UniProt P50613: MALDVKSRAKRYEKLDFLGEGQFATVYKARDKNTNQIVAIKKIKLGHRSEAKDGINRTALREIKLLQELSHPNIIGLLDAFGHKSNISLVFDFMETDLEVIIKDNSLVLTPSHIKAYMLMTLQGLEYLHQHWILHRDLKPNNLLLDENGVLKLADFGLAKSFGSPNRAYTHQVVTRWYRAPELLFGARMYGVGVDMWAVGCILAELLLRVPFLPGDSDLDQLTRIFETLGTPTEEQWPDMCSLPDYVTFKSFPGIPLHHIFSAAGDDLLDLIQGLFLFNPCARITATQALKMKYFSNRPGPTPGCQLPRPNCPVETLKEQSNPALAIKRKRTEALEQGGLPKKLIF
UniProt P50750, whole entry: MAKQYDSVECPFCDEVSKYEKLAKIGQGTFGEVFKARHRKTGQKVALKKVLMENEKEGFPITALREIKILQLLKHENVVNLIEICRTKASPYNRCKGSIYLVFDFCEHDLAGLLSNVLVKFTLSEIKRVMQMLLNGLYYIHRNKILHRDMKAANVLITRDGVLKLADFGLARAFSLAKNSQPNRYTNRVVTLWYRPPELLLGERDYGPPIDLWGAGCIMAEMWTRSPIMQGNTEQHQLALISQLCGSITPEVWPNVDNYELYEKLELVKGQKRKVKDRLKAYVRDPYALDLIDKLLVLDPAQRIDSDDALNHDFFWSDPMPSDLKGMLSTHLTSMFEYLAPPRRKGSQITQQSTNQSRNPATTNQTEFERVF
UniProt O96017, whole entry: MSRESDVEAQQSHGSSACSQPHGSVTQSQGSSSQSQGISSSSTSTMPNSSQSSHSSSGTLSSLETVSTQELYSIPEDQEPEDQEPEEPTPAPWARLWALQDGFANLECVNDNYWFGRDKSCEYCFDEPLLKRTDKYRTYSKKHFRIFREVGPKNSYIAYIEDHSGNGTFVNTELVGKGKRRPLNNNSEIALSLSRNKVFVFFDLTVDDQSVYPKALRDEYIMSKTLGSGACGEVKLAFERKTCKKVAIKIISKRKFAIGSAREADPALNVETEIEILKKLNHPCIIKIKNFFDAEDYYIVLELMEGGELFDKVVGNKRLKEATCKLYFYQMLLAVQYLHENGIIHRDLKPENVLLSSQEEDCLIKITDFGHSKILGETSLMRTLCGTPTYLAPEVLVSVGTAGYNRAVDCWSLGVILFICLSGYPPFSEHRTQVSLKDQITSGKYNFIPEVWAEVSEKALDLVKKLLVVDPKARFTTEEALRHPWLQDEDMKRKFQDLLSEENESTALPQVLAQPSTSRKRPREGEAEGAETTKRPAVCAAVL
UniProt P07333, whole entry: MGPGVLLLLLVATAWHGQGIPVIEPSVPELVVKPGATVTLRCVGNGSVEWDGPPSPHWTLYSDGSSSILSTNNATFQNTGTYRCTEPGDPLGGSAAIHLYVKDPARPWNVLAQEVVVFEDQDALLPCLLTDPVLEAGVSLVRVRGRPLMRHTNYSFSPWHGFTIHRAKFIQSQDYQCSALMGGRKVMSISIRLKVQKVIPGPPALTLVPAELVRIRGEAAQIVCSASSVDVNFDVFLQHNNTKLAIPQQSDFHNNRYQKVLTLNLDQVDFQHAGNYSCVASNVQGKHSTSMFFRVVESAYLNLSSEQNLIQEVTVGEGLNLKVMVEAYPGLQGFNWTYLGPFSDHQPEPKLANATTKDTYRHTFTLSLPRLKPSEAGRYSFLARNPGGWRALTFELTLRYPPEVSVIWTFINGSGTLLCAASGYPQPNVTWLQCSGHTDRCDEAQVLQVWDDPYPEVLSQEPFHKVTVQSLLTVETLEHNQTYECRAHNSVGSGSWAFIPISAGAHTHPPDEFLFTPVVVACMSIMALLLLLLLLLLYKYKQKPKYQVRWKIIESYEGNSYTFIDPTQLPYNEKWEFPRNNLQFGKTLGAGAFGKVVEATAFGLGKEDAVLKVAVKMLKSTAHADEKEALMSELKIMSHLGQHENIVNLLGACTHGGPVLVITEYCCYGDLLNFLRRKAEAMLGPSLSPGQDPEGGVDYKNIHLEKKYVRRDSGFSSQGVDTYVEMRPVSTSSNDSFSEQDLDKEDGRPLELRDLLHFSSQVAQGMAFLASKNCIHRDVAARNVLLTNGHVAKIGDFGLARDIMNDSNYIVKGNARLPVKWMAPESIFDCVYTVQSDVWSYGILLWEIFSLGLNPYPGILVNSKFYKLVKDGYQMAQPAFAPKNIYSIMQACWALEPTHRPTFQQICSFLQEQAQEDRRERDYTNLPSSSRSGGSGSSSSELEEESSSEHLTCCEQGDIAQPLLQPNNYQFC
UniProt P48729: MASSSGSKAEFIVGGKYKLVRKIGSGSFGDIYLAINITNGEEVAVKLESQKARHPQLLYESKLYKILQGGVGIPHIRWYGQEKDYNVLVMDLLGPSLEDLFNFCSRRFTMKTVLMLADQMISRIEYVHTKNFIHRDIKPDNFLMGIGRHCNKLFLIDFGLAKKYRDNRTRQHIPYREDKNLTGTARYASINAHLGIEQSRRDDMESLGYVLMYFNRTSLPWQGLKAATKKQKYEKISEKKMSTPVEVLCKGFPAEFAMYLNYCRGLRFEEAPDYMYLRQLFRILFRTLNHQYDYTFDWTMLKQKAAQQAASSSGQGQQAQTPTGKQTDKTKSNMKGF
UniProt P48730: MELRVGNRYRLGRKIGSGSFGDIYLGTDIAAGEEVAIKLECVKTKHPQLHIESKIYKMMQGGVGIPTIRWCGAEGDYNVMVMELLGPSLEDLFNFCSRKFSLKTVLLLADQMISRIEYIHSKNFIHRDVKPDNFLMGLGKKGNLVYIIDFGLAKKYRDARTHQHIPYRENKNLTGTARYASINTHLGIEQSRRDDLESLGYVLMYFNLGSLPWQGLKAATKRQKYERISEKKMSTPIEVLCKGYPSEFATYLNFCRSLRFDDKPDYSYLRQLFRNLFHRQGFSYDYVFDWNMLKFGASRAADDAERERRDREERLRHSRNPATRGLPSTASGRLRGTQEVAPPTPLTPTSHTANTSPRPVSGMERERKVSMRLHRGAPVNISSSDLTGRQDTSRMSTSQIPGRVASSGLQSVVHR
UniProt Q08345: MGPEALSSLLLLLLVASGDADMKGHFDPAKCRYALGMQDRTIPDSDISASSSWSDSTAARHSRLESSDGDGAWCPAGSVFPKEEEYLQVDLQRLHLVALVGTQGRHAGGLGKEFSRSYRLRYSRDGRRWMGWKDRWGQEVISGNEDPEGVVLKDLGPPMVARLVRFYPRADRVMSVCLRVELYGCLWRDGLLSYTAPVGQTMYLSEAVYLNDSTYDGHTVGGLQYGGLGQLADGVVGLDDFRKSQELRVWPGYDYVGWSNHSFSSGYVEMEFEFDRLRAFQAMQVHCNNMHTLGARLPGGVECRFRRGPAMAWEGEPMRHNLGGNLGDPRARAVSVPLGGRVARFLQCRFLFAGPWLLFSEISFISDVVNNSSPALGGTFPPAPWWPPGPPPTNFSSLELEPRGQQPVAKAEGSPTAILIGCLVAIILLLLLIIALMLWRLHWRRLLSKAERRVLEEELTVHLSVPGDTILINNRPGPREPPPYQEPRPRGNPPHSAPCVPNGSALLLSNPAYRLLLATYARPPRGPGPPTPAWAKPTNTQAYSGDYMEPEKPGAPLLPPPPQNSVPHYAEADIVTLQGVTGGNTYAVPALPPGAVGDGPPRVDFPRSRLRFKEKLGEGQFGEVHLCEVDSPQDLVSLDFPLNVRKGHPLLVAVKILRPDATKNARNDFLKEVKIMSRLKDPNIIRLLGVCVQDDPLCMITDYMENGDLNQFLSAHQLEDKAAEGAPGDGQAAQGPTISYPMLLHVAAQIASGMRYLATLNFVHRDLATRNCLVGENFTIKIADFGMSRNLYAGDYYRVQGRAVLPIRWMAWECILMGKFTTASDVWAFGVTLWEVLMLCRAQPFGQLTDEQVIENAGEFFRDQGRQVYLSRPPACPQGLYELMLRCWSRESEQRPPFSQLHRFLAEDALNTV

Key:
Experiment in all cases: kinase-Nluc reporter destabilization hit call (1 = scored as downregulated) (binary); higher = compound decreases kinase abundance
Conditions in all cases: K562; 2-18 h
BRAF_V600E = tested on: BRAF_V600E
BTK = BTK (UniProt Q06187)
CAMK2A = CAMK2A (UniProt Q9UQM7)
CAMK2G = CAMK2G (UniProt Q13555)
CDK10 = CDK10 (UniProt Q15131)
CDK2 = CDK2 (UniProt P24941)
CDK3 = CDK3 (UniProt Q00526)
CDK4 = CDK4 (UniProt P11802)
CDK5 = CDK5 (UniProt Q00535)
CDK6 = CDK6 (UniProt Q00534)
CDK7 = CDK7 (UniProt P50613)
CDK9 = CDK9 (UniProt P50750)
CHEK2 = CHEK2 (UniProt O96017)
CSF1R = CSF1R (UniProt P07333)
CSK = CSK (UniProt P41240)
CSNK1A1 = CSNK1A1 (UniProt P48729)
CSNK1D = CSNK1D (UniProt P48730)
DDR1 = DDR1 (UniProt Q08345)
DYRK1B = DYRK1B (UniProt Q9Y463)
DYRK2 = DYRK2 (UniProt Q92630)

Measured: kinase-Nluc reporter destabilization hit call

CCc1cccc(CC)c1NC(=O)N1Cc2[nH]nc(NC(=O)c3ccc(N4CCN(C)CC4)cc3)c2C1 (2.5 µM)
inactive: BRAF_V600E 0 | BTK 0 | CAMK2A 0 | CAMK2G 0 | CDK10 = 0 | CDK2 = 0 | CDK3 = 0 | CDK4 = 0 | CDK5 = 0 | CDK6 = 0 | CDK7 = 0 | CDK9 = 0 | CHEK2 = 0 | CSF1R 0 | CSK 0 | CSNK1A1 = 0 | CSNK1D 0 | DDR1 = 0 | DYRK1B 0 | DYRK2 = 0

COc1cc2ncnc(-n3nc(-c4ccccn4)nc3N)c2cc1OC (10 µM)
inactive: BRAF_V600E 0 | BTK 0 | CAMK2A 0 | CAMK2G 0 | CDK10 = 0 | CDK2 = 0 | CDK3 = 0 | CDK4 = 0 | CDK5 = 0 | CDK6 = 0 | CDK7 = 0 | CDK9 = 0 | CHEK2 = 0 | CSF1R 0 | CSK 0 | CSNK1A1 = 0 | CSNK1D 0 | DDR1 = 0 | DYRK1B 0 | DYRK2 = 0

Cc1cc(-c2ccnc(Nc3cnn(C)c3)n2)ccc1CNC(=O)N1CC(OC(C)C)C1 (10 µM)
inactive: BRAF_V600E 0 | BTK 0 | CAMK2A 0 | CAMK2G 0 | CDK10 = 0 | CDK2 = 0 | CDK3 = 0 | CDK4 = 0 | CDK5 = 0 | CDK6 = 0 | CDK7 = 0 | CDK9 = 0 | CHEK2 = 0 | CSF1R 0 | CSK 0 | CSNK1A1 = 0 | CSNK1D 0 | DDR1 = 0 | DYRK1B 0 | DYRK2 = 0

Cn1cc2cc(C(F)(F)c3nnc4ccc(-c5cnn(C6CC6)c5)nn34)c(F)cc2n1 [Bozitinib] (10 µM)
inactive: BRAF_V600E 0 | BTK 0 | CAMK2A 0 | CAMK2G 0 | CDK10 = 0 | CDK2 = 0 | CDK3 = 0 | CDK4 = 0 | CDK5 = 0 | CDK6 = 0 | CDK7 = 0 | CDK9 = 0 | CHEK2 = 0 | CSF1R 0 | CSK 0 | CSNK1A1 = 0 | CSNK1D 0 | DDR1 = 0 | DYRK1B 0 | DYRK2 = 0

Cc1cnc(NC2CCOCC2)nc1-n1cnc(C(=O)N[C@H](CN)c2cc(F)cc(Cl)c2)c1 (10 µM)
inactive: BRAF_V600E 0 | BTK 0 | CAMK2A 0 | CAMK2G 0 | CDK10 = 0 | CDK2 = 0 | CDK3 = 0 | CDK4 = 0 | CDK5 = 0 | CDK6 = 0 | CDK7 = 0 | CDK9 = 0 | CHEK2 = 0 | CSF1R 0 | CSK 0 | CSNK1A1 = 0 | CSNK1D 0 | DDR1 = 0 | DYRK1B 0 | DYRK2 = 0
